Results are given in words; binding and its absence hold for the method and conditions named. Binding seen in cells or lysates may run through a third protein. A result given as binding can be weak or reduced; the word gives no strength. Where a sequence is shown, tags or fusion partners need not be part of it.

The target in this test is T1, 6xHN tagged USP48 (human) (UniProt Q86UV5).
T1 sequence: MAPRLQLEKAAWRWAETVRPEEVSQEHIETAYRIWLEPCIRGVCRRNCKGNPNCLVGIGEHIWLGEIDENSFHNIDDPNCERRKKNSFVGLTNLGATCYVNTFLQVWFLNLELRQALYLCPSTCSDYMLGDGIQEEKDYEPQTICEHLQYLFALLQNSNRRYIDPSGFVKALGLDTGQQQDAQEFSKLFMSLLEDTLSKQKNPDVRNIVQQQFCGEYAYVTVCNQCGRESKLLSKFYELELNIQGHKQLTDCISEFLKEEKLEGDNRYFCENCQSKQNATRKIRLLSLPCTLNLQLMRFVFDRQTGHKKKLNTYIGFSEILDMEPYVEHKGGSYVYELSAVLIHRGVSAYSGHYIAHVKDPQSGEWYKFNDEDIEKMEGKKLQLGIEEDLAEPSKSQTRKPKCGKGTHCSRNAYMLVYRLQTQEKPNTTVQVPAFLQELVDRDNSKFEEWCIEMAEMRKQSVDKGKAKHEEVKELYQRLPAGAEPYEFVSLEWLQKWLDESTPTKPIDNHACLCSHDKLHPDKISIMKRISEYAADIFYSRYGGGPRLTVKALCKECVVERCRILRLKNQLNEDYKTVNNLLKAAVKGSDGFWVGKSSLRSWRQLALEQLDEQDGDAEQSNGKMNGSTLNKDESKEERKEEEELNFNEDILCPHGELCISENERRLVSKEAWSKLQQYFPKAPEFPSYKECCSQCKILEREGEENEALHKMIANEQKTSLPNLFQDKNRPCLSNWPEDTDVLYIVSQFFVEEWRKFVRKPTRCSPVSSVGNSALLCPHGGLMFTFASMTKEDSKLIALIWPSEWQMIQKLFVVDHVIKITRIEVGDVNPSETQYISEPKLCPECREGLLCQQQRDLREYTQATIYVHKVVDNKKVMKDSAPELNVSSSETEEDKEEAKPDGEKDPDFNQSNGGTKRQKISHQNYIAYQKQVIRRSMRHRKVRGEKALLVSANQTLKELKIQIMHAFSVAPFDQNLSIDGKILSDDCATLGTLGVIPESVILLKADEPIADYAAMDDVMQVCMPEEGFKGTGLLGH
As to the kind of experiment: pull-down; called co-immunoprecipitation by the paper: recombinant 6xHN-tagged host protein incubated overnight at 4°C with cleared M. smegmatis lysate expressing the Flag-tagged M. avium protein, captured on His-columns, washed, eluted; western blot with 6xHN and Flag antibodies; only the target purified.

Take Flag-tagged MAV_4563: the binding result was “binds”.
